Laboratory results reported in the supplement of paper PMC9233669.
This sample is rich in variants without activity.

Assays:
biotinyl-Leu-oxazolone = assay: self-aminoacylation, catalytic enhancement (BLO) (fold over background); higher = more active; k-Seq, kA / k0A0; sequences stand for … in GGGAAUGGAUCCACAUCUACGAAUUC…UUCACUGCAGACUUGACGAAGCUG
Outline: (§1)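 Mutagenized RNA pools (0.43 μM; 21-nt variable region) were treated with 2–1250 μM of each biotinyl-aminoacyl-oxazolone. Conditions were 50 μL HEPES/NaCl/KCl/MgCl2/CaCl2 buffer, 5% acetonitrile, pH 6.9–7.0, room temperature, 90 minutes. Catalytic enhancement, the median kA relative to the uncatalyzed rate, was derived from streptavidin capture, qPCR and Illumina sequencing.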

biotinyl-Met-oxazolone = assay: self-aminoacylation, catalytic enhancement (BMO) (fold over background); higher = more active; k-Seq, kA / k0A0; sequences stand for … in GGGAAUGGAUCCACAUCUACGAAUUC…UUCACUGCAGACUUGACGAAGCUG
Outline: as §1

biotinyl-Val-oxazolone = assay: self-aminoacylation, catalytic enhancement (BVO) (fold over background); higher = more active; k-Seq, kA / k0A0; sequences stand for … in GGGAAUGGAUCCACAUCUACGAAUUC…UUCACUGCAGACUUGACGAAGCUG
Outline: as §1

biotinyl-Ile-oxazolone = assay: self-aminoacylation, catalytic enhancement (BIO) (fold over background); higher = more active; k-Seq, kA / k0A0; sequences stand for … in GGGAAUGGAUCCACAUCUACGAAUUC…UUCACUGCAGACUUGACGAAGCUG
Outline: as §1

Sequence | self-aminoacylation (biotinyl-Leu-oxazolone) | self-aminoacylation (biotinyl-Met-oxazolone) | self-aminoacylation (biotinyl-Val-oxazolone) | self-aminoacylation (biotinyl-Ile-oxazolone)
AACAUUGCUAAUAGUCGCAAG [Fam3.1 aminoacylation ribozyme variant] | 1.87 | 1.63 | 1.7 | 
AACUUUGCAAAUAGUCGCAAG [Fam3.1 aminoacylation ribozyme variant] | 2.8 | 1.96 | 1.94 | 2.3
AACUUUGCUAAUAGUAGCAAG [Fam3.1 aminoacylation ribozyme variant] | 1.76 | 2.2 | 1.67 | 1.77
AAGUAUGCUAAUAGUCGCAAG [Fam3.1 aminoacylation ribozyme variant] | 1.38 | 1.72 | 1.42 | 1.67
AAGUAUGCUAAUCGUCGCAAG [Fam3.1 aminoacylation ribozyme variant] | 1.37 | 1.71 | 1.56 | 1.81
AAGUCUGCUAAUAGUCGUAAG [Fam3.1 aminoacylation ribozyme variant] | 1.67 | 2.5 | 1.46 | 1.6
AAGUGUGCUAAAAGUCGCAAG [Fam3.1 aminoacylation ribozyme variant] | 1.19 | 1.66 | 1.73 | 1.53
AAGUGUGCUAACAGUCGCAAG [Fam3.1 aminoacylation ribozyme variant] | 1.58 | 1.35 | 1.64 | 1.59
AAGUUGGCUAAUAGUCGCAAG [Fam3.1 aminoacylation ribozyme variant] | 1.57 | 1.55 | 1.55 | 1.7
AAGUUGGCUUAUAGUCGCAAG [Fam3.1 aminoacylation ribozyme variant] | 1.64 | 1.94 | 1.61 | 1.59
AAGUUUACUAAUAGUCGCAAU [Fam3.1 aminoacylation ribozyme variant] | 1.42 | 1.48 | 1.6 | 1.86
AAGUUUCCUAAUAGUCACAAG [Fam3.1 aminoacylation ribozyme variant] | 1.64 | 1.77 | 1.61 | 1.8
AAGUUUGCUAAUAGUCCCAAG [Fam3.1 aminoacylation ribozyme variant] | 0.852 | 0.941 | 0.938 | 1.01
AAGUUUGCUAAUAGUCGCCGG [Fam3.1 aminoacylation ribozyme variant] | 3.53 | 5.01 | 4.14 | 3.08
AAGUUUGCUAAUGGUCGCAAA [Fam3.1 aminoacylation ribozyme variant] | 1.25 | 1.24 | 1.19 | 1.39
AAGUUUGUUAAUAGUCGCAAA [Fam3.1 aminoacylation ribozyme variant] | 1.68 | 1.63 | 1.32 | 1.8
AAGUUUUCUAAAAGUCGCAAG [Fam3.1 aminoacylation ribozyme variant] | 1.65 | 1.86 | 1.42 | 1.69
AAUACCCUGGUCAUCGAGUGC [Fam2.1 aminoacylation ribozyme variant] | 1.55 | 1.19 | 1.3 | 1.02
AAUUUUGCUAAUAGUCGCAAG [Fam3.1 aminoacylation ribozyme variant] | 1.64 | 1.66 | 1.55 | 1.84
AAUUUUGCUGAUAGUCGCAAG [Fam3.1 aminoacylation ribozyme variant] | 1.5 | 1.7 | 1.76 | 1.93
ACAAACUUCAAGCAAUCGGUC [Fam1B.1 aminoacylation ribozyme variant] | 1.51 | 1.41 | 1.47 | 1.61
ACGUUUGCUAAUAGUCGCCAG [Fam3.1 aminoacylation ribozyme variant] | 1.94 |  | 1.61 | 1.85
CCACACUUCAAGCAAUCGGCC [Fam1B.1 aminoacylation ribozyme variant] | 1.63 | 1.75 |  | 1.65
CCACACUUCAAGCCAUCGGUU [Fam1B.1 aminoacylation ribozyme variant] | 1.86 | 1.86 |  | 1.59
CCCCAUUUCAAGCAAUCGGUC [Fam1B.1 aminoacylation ribozyme variant] | 1.74 | 1.95 |  | 
CCGCACCUCAAGCAAUCGGUC [Fam1B.1 aminoacylation ribozyme variant] | 1.26 | 1.24 |  | 1.19
